The values below are quoted from earlier work in paper PMC4433340 (PLoS Neglected Tropical Diseases, 2015).

The term IC50 denotes the concentration that inhibits the measured activity by half.

This data set concerns Trypanosoma cruzi. On the set-up: method as in PMID 19735656. Conditions: read-out: IC50 for trypanocidal action; cited from earlier work.

In the case of `O=C(Cn1ccnc1[N+](=O)[O-])NCc1ccccc1` [Benznidazole], the IC50 was 20 µM.
